# Some of the results follow.
# Amino acid sequences for entries named in this document (tags omitted). A change or cut given only in a name is not applied to a line headed by its entry.
# UniProt O14735: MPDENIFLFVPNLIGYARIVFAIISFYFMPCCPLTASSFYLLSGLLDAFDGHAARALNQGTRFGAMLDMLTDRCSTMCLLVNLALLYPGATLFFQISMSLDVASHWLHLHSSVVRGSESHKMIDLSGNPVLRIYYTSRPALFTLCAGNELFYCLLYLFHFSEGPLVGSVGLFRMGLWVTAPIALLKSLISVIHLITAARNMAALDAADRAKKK
# UniProt Q9BWS9: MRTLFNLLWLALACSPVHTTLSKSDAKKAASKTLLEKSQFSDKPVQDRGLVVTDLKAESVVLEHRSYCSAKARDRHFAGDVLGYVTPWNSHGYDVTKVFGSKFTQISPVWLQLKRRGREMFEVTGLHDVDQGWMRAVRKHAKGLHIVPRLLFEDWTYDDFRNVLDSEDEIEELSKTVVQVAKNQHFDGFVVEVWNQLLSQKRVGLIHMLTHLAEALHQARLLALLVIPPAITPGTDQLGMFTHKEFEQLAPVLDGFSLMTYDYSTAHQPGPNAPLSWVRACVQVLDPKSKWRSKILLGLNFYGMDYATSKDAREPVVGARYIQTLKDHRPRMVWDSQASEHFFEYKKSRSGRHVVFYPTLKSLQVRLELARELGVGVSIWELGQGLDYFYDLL
# UniProt Q5VV42: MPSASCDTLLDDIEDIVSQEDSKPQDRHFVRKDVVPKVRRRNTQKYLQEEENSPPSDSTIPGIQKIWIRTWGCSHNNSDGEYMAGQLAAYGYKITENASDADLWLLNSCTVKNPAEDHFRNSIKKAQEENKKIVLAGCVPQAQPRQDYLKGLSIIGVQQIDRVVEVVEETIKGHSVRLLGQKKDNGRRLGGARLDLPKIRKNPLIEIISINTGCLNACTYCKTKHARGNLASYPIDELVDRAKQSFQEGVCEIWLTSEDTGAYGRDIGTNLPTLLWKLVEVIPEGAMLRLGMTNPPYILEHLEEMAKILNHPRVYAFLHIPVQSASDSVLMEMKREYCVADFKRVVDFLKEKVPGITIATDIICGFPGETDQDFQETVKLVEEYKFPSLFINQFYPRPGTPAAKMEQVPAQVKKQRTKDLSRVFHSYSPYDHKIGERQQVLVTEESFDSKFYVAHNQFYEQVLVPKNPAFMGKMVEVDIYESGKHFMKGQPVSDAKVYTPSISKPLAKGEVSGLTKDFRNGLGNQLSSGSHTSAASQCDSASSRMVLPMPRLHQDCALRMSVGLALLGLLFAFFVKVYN
# UniProt Q00536: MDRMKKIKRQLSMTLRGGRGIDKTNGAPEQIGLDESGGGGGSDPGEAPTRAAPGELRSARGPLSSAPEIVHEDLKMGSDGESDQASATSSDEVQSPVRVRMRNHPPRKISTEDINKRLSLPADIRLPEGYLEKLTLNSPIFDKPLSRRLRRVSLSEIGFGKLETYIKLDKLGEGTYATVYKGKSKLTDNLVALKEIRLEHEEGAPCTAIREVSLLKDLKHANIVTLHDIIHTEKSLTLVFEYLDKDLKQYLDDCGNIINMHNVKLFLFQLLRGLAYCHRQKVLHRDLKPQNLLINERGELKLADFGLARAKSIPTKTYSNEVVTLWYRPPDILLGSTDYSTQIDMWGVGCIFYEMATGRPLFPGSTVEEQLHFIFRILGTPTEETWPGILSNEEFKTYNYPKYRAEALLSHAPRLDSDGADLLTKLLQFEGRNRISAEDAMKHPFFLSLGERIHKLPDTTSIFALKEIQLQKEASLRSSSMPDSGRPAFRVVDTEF
# UniProt Q9P2B7: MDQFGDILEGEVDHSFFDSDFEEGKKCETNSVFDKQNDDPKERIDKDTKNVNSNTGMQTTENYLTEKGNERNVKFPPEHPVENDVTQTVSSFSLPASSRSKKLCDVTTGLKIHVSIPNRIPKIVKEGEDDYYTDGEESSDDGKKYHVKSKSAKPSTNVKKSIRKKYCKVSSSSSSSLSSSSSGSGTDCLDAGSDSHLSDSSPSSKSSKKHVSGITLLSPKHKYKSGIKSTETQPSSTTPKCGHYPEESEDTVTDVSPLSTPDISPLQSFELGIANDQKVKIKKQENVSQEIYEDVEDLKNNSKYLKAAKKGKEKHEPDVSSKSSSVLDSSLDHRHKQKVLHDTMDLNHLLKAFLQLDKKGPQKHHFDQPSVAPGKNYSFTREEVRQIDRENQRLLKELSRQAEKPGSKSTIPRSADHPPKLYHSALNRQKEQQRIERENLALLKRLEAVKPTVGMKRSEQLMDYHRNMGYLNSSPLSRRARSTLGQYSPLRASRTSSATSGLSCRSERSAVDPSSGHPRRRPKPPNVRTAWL
# UniProt Q8TAP6: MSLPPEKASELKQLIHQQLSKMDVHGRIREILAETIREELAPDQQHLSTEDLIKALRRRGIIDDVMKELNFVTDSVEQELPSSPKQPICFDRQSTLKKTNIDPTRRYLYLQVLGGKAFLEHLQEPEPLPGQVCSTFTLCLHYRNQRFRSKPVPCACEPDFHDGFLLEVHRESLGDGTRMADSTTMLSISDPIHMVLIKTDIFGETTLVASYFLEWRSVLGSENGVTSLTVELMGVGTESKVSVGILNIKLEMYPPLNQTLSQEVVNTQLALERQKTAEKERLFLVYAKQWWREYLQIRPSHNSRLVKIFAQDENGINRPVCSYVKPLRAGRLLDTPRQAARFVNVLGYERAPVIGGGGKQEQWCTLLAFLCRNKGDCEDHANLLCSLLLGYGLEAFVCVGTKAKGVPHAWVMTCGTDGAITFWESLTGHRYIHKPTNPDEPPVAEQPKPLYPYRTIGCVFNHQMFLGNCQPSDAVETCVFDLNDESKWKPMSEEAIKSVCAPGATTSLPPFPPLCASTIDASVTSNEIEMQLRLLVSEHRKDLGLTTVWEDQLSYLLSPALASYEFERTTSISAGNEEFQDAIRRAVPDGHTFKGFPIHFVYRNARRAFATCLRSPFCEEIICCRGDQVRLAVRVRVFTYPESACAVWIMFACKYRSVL
# UniProt O00748: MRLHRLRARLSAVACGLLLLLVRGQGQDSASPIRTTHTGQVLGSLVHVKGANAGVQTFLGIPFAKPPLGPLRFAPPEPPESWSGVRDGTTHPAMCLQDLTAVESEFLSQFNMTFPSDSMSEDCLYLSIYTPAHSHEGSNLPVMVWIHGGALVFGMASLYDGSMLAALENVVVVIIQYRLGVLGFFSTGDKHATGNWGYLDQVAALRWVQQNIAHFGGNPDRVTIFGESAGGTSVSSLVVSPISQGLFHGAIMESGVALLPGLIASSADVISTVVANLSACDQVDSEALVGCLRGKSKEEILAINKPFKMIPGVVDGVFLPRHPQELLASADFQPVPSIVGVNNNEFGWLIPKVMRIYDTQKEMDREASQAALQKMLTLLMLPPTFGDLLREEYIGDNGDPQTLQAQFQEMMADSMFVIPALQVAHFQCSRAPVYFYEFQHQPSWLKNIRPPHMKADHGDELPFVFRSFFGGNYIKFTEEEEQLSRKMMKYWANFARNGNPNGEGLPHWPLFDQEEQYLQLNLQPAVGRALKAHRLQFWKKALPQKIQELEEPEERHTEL
# UniProt Q9Y6K0: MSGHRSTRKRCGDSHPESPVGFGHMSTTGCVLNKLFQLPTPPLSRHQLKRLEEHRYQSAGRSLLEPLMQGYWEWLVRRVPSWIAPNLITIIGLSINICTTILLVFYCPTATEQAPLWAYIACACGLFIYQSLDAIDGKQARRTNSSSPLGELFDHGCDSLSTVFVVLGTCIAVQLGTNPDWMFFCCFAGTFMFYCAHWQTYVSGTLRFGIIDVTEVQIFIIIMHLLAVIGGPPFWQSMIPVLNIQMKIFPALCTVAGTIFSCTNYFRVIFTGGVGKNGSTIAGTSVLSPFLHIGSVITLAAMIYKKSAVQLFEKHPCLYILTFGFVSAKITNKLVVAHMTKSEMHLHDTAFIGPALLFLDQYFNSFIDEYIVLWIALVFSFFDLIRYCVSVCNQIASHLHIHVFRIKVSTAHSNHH
# UniProt Q9H3Q1: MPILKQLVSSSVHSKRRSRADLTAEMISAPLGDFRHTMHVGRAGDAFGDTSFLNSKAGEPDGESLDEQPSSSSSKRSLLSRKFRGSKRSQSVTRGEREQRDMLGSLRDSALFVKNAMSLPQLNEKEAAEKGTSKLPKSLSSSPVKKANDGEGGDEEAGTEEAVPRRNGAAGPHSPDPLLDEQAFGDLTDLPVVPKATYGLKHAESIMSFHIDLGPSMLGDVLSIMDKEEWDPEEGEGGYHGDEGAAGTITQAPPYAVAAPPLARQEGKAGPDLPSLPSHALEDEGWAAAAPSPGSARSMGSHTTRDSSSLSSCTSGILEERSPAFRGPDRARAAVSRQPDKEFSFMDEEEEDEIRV
# UniProt Q9NYV4, whole entry, looked up: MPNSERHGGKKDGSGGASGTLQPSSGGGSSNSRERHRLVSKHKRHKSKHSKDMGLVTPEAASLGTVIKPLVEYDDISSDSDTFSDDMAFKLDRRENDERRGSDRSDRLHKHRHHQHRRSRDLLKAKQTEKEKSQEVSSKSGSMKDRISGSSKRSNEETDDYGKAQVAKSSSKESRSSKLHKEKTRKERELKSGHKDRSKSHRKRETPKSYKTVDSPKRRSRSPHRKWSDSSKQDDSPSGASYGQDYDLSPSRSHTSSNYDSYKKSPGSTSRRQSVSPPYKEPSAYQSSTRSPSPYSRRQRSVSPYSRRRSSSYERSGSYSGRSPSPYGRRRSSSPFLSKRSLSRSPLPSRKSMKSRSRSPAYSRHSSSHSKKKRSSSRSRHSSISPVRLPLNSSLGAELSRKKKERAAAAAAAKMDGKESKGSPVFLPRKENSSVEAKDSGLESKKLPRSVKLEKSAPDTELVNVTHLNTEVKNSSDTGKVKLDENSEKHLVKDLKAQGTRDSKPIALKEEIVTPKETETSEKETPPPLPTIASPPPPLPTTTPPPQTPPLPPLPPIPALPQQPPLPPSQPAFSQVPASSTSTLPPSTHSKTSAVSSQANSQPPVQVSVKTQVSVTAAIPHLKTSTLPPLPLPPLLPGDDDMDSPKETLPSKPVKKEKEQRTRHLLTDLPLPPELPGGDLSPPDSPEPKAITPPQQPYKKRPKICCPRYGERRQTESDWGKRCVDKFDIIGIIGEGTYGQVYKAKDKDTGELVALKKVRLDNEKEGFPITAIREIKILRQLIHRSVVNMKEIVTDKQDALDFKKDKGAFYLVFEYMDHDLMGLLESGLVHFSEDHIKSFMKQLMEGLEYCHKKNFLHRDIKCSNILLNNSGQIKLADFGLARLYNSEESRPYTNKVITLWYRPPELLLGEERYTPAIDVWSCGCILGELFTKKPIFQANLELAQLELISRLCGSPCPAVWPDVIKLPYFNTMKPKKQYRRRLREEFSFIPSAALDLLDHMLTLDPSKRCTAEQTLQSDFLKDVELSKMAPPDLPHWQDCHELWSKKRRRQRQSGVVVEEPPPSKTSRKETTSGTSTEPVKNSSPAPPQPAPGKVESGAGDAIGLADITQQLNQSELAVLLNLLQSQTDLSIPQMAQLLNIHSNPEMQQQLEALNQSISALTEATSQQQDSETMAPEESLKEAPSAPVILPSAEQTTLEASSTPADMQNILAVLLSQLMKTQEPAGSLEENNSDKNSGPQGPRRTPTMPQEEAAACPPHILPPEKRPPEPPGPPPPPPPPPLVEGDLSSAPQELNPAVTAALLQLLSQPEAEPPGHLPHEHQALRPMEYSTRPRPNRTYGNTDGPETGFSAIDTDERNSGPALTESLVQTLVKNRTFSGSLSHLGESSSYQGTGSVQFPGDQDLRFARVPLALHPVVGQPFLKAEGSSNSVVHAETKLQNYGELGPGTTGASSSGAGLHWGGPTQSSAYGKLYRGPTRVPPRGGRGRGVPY
# UniProt Q13112, whole entry, looked up: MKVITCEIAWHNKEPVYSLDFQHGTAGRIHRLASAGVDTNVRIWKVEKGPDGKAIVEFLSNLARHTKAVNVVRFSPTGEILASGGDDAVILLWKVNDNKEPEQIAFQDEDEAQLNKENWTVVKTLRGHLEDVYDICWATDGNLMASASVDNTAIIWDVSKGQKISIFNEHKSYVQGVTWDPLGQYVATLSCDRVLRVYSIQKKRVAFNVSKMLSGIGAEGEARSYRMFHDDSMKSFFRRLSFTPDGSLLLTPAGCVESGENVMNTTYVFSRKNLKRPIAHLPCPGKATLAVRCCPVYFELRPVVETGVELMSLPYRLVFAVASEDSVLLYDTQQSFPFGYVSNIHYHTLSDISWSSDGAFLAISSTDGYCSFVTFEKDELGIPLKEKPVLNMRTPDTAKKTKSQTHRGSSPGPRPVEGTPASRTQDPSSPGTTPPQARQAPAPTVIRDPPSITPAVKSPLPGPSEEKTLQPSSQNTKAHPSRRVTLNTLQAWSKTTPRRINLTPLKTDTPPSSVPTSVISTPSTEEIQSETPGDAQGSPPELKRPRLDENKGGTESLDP
# UniProt Q9BY43: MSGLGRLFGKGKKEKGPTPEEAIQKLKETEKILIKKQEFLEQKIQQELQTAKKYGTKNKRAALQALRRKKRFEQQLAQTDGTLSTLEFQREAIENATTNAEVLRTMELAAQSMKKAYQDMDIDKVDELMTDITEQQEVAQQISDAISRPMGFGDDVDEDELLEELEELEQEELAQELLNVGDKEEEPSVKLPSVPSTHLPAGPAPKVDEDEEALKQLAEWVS
# UniProt O75956: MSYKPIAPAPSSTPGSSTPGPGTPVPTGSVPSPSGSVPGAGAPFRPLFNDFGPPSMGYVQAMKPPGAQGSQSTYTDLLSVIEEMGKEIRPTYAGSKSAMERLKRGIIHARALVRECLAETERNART
# Compound: CC1=C2C(=CC=C1)N=C(N(C2=O)C3=CC=CC=C3C)CN4C=NC5=C(N=CN=C54)N
# Test: log2 fold change, soluble protein after heating vs DMSO (PISA); higher = thermal stabilisation; K562 cells, 10 uM, 30 min; active = over 0.2 and 3.5 SD of the protein, either way, in both replicates (recomputed)
# Method in brief: (§1)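 Thermal stability values are relative to control samples and come from duplicates. They are expressed as log2 fold changes. For measurement, K562 cells (2×10^6 cells/mL) received 10 μM compound for 30 min, and aliquots were heated for 3 min over 48°C-58°C, pooled, and extracted at 4°C in PBS with 0.5% NP-40. Soluble protein, the supernatant after 21,000xg for 90 min, was quantified by TMTpro 16plex LC-MS/MS with equalised channel sums.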
row,Target,log2 fold change
1,CDIPT (UniProt O14735),inactive: 0.01
2,CHD5 (UniProt Q8TDI0),inactive: 0.188
3,CFB (UniProt P00751),inactive: 0.079
4,CHMP2A (UniProt O43633),inactive: -0.001
5,CHID1 (UniProt Q9BWS9),inactive: -0.021
6,CDKAL1 (UniProt Q5VV42),inactive: 0.023
7,CDK16 isoform 2 (UniProt Q00536),inactive: 0.043
8,CEP250 (UniProt Q9BV73),inactive: -0.029
9,CDYL (UniProt Q9Y232),inactive: -0.084
10,CHMP1A (UniProt Q9HD42),inactive: 0.014
11,CENPK (UniProt Q9BS16),inactive: -0.093
12,CFAP97 (UniProt Q9P2B7),inactive: -0.085
13,CEP76 (UniProt Q8TAP6),inactive: 0.087
14,CHCHD4 isoform 2 (UniProt Q8N4Q1),inactive: -0.006
15,CES2 isoform 4 (UniProt O00748),inactive: 0.061
16,CHMP4B (UniProt Q9H444),inactive: 0.031

row,Target,log2 fold change
1,CEP44 (UniProt Q9C0F1),inactive: -0.007
2,CFH (UniProt P08603),inactive: -0.006
3,CEPT1 (UniProt Q9Y6K0),inactive: 0.074
4,CHAC2 (UniProt Q8WUX2),inactive: -0.034
5,CDV3 (UniProt Q9UKY7),inactive: 0.003
6,CDK17 isoform 2 (UniProt Q00537),inactive: -0.049
7,CFAP36 isoform 2 (UniProt Q96G28),active: 0.383
8,CDK4 (UniProt P11802),inactive: 0.119
9,CDC42EP4 (UniProt Q9H3Q1),inactive: -0.28
10,CDK12 (UniProt Q9NYV4),inactive: -0.103
11,CDKN1B (UniProt P46527),inactive: -0.036
12,CDK6 (UniProt Q00534),inactive: 0.005
13,CHAF1B (UniProt Q13112),inactive: 0.039
14,CHMP4A isoform 2 (UniProt Q9BY43),inactive: 0.005
15,CHIC2 (UniProt Q9UKJ5),inactive: -0.021

# Compound: Cc1sc2c(c1C)C(c1ccc(Cl)cc1)=N[C@@H](CC(=O)OC(C)(C)C)c1nnc(C)n1-2
# Test: as above
# Method in brief: as §1
row,Target,log2 fold change
1,CDIPT (UniProt O14735),inactive: -0.019
2,CHD5 (UniProt Q8TDI0),inactive: -0.042
3,CHMP2A (UniProt O43633),inactive: -0.031
4,CHID1 (UniProt Q9BWS9),inactive: 0.005
5,CDKAL1 (UniProt Q5VV42),inactive: 0.012
6,CDK16 isoform 2 (UniProt Q00536),inactive: -0.014
7,CEP250 (UniProt Q9BV73),inactive: 0.045
8,CDYL (UniProt Q9Y232),inactive: 0.048
9,CHMP1A (UniProt Q9HD42),inactive: 0.012
10,CFAP97 (UniProt Q9P2B7),inactive: 0.094
11,CEP76 (UniProt Q8TAP6),inactive: 0.013
12,CHCHD4 isoform 2 (UniProt Q8N4Q1),active: -0.489
13,CES2 isoform 4 (UniProt O00748),inactive: 0.118
14,CHMP4B (UniProt Q9H444),inactive: 0.056
15,CEP44 (UniProt Q9C0F1),inactive: -0.066
16,CFH (UniProt P08603),inactive: 0.043
17,CEPT1 (UniProt Q9Y6K0),inactive: -0.121
18,CHAC2 (UniProt Q8WUX2),inactive: 0.008
19,CDV3 (UniProt Q9UKY7),inactive: -0.005
20,CEBPB (UniProt P17676),inactive: 0.062
21,CFAP36 isoform 2 (UniProt Q96G28),inactive: -0.009
22,CDC42EP4 (UniProt Q9H3Q1),inactive: 0.004
23,CDK12 (UniProt Q9NYV4),inactive: 0.112
24,CENPP (UniProt Q6IPU0),inactive: 0.021
25,CDK6 (UniProt Q00534),inactive: -0.036
26,CHAF1B (UniProt Q13112),inactive: -0.028
27,CHMP4A isoform 2 (UniProt Q9BY43),inactive: 0.031

# Compound: c1ccc([C@@H]2C[C@H]2NC2CCNCC2)cc1
# Test: as above
# Method in brief: as §1
row,Target,log2 fold change
1,CDIPT (UniProt O14735),inactive: 0.09
2,CHD5 (UniProt Q8TDI0),inactive: 0.012
3,CHAF1A (UniProt Q13111),inactive: -0.045
4,CFB (UniProt P00751),inactive: 0.011
5,CHMP2A (UniProt O43633),inactive: 0.007
6,CHID1 (UniProt Q9BWS9),inactive: -0.025
7,CDKAL1 (UniProt Q5VV42),inactive: -0.12
8,CDK16 isoform 2 (UniProt Q00536),inactive: -0.074
9,CEP250 (UniProt Q9BV73),inactive: 0.054
10,CDYL (UniProt Q9Y232),inactive: 0.042
11,CHMP1A (UniProt Q9HD42),inactive: -0.008
12,CENPK (UniProt Q9BS16),inactive: -0.255
13,CFAP97 (UniProt Q9P2B7),inactive: 0.045
14,CEP76 (UniProt Q8TAP6),inactive: 0.084
15,CHCHD4 isoform 2 (UniProt Q8N4Q1),inactive: -0.113
16,CDK2AP2 (UniProt O75956),inactive: 0.012
17,CES2 isoform 4 (UniProt O00748),inactive: -0.141
18,CHMP4B (UniProt Q9H444),inactive: 0.054

row,Target,log2 fold change
1,CEP44 (UniProt Q9C0F1),inactive: 0.033
2,CFH (UniProt P08603),inactive: 0.014
3,CEPT1 (UniProt Q9Y6K0),inactive: -0.054
4,CHAC2 (UniProt Q8WUX2),inactive: 0.027
5,CDV3 (UniProt Q9UKY7),inactive: -0.007
6,CDK17 isoform 2 (UniProt Q00537),inactive: -0.083
7,CEBPB (UniProt P17676),inactive: -0.045
8,CFAP36 isoform 2 (UniProt Q96G28),inactive: -0.158
9,CDK4 (UniProt P11802),inactive: -0.165
10,CDC42EP4 (UniProt Q9H3Q1),inactive: -0.048
11,CDK12 (UniProt Q9NYV4),inactive: 0.008
12,CENPP (UniProt Q6IPU0),inactive: 0.115
13,CDS1 (UniProt Q92903),inactive: -0.204
14,CDKN1B (UniProt P46527),inactive: -0.004
15,CDK6 (UniProt Q00534),inactive: -0.055
16,CHAF1B (UniProt Q13112),inactive: 0.02
17,CHMP4A isoform 2 (UniProt Q9BY43),inactive: 0.04
18,CHIC2 (UniProt Q9UKJ5),inactive: -0.052
